# Library compounds against nucleic acid targets

Source: the ROBIN nucleic acid binder screens (doi:10.1002/anie.202211358).

Oligonucleotides screened, 5′ to 3′:
T1: PreQ1 riboswitch RNA pseudoknot, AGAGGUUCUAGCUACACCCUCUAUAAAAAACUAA. From B. subtilis. About 24,000 compounds screened, about 170 hits.
T2: TPP riboswitch RNA three-way junction, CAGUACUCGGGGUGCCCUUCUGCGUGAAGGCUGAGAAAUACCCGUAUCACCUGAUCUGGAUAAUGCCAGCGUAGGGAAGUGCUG. About 24,000 compounds screened, about 160 hits.
T3: SAM-II riboswitch RNA pseudoknot, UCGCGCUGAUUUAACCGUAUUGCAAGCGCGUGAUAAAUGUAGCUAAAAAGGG. About 21,000 compounds screened, about 200 hits.

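Each compound is printed as two spots on a slide made to bind it covalently, so it has no test concentration; the read-out is fluorescence of the bound, labelled oligonucleotide. For the PreQ1, TPP and SAM-II riboswitches the laboratory earlier reported (doi:10.1038/s41467-019-09493-3) 1 µM RNA, 2 h, and a rule that included a mean Z-score above 3 (spot signal-to-noise against the whole library), a score well above that on a control array, and duplicate spots agreeing (coefficient of variation under 100). The data file gives only the calls; its cut-offs may differ, and compounds hitting several targets are kept. A missing hit is not proof of no binding, and a hit is not a measured affinity.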
“yes” means called a hit, “no” means screened and not called a hit.
This is an unselected part of the compounds tested.
A dash means that no call is listed here.

| # | compound | T1 | T2 | T3 |
|---|---|---|---|---|
| 1 | `COCc1cc(C)nc2sc(C(=O)OCc3ccccc3)c(N)c12` | no | no | no |
| 2 | `Nc1nonc1-c1noc(-c2ccc(Br)cc2)n1` | no | no | no |
| 3 | `CCC(NC(=O)c1nc(N)n[nH]1)c1nc(C)c(C)s1` (centres unmarked) | no | no | no |
| 4 | `Cc1ccc(Nc2cc(N3CCN(S(=O)(=O)c4cccc(F)c4)CC3)nc(C)n2)cc1` | no | no | - |
| 5 | `CC(C)CNC1CC(=O)N(c2ccc(I)cc2)C1=O` (centres unmarked) | no | no | no |
| 6 | `Nc1ncnc(N2CCOCC2)n1` | no | no | no |
| 7 | `CCc1cccc(-n2nnc(-c3nc(-c4ccc(Cl)cc4)no3)c2N)c1` | no | no | - |
| 8 | `CC(C(=O)N1Cc2cnn(CCO)c2C1)N1CCc2ccccc2C1` (centres unmarked) | no | no | no |
| 9 | `O=C(C1CNCCO1)N1CCCN(C2Cc3ccccc3C2)CC1` (centres unmarked) | no | no | no |
| 10 | `Nc1c(C(=O)Nc2ccc(Br)cn2)sc2nc3c(cc12)CCCCCC3` | no | no | no |
| 11 | `Fc1ccc(Nc2nc(-c3ccccn3)cs2)cc1` | no | no | no |
| 12 | `Cc1cc(SCc2sc(-c3ccc(C(F)(F)F)cc3)nc2C)ccc1OCC(=O)O` | no | no | no |
| 13 | `Cc1c(CCO)c2ccccc2n1-c1ccccc1` | no | no | no |
| 14 | `Cc1cccc(OCCCn2c(C(C)O)nc3ccccc32)c1` (centres unmarked) | no | no | - |
| 15 | `Cn1c(NCC(O)CO)nc2c1c(=O)n(Cc1ccccc1Cl)c(=O)n2C` (centres unmarked) | no | no | no |
| 16 | `CCN1CCC(CC(=O)NC(C)c2nnc(N)s2)CC1` (centres unmarked) | no | no | no |
| 17 | `CC1(C)Cc2c(sc3nc(NCCCO)[nH]c(=O)c23)CO1` | no | no | no |
| 18 | `CNc1cc(C)nc2c(C)c(-c3ccccc3)nn12` | no | no | - |
| 19 | `COc1ccc(-c2cc3nc(C)cc(NCC4CCCO4)n3n2)cc1OC` (centres unmarked) | no | no | - |
| 20 | `COc1ccc2c(c1OC)N=C(NC(=O)c1cccnc1)N1CCN=C21` | no | no | no |
| 21 | `CSCCc1nc(CCC2CCCCN2C)n(CCO)n1` (centres unmarked) | no | no | no |
| 22 | `NCCNC1=NS(=O)(=O)c2ccccc21` | no | no | no |
| 23 | `CCC1(CO)CCCN(Cc2noc(C3CCCC3)n2)C1` (centres unmarked) | no | no | no |
| 24 | `C=C1S/C(=N\c2c(C)cccc2Cl)N(C(=O)c2sc3ccccc3c2Cl)C12CCCCC2` | no | no | no |
| 25 | `CC1(C)NC(=O)N(CC(O)COc2ccc(N3C(=O)C4CC=CCC4C3=O)cc2)C1=O` (centres unmarked) | no | no | no |
| 26 | `CC1(C)CC(=O)C2=C(C1)OC(N)=C(C#N)C2c1ccccc1Cl` (centres unmarked) | no | no | no |
| 27 | `O=[N+]([O-])C1(CO)COC(c2ccccc2)OC1` (centres unmarked) | no | no | no |
| 28 | `CN(Cc1nc(-c2cccnc2)no1)C(=O)CC1COCCN1` (centres unmarked) | no | no | no |
| 29 | `Cc1ccc(Oc2ccc(C(F)(F)F)cc2N)c(Cl)c1` | no | no | no |
| 30 | `Cc1ccc(NC(=O)c2nnn(CC(=O)Nc3ccccc3)c2N)cc1` | no | no | no |
| 31 | `NC1(C(=O)NCC2CCCN(Cc3cccc4nonc34)C2)CCC1` (centres unmarked) | no | no | no |
| 32 | `CNc1ccc(Cl)c2c1C(=O)c1ccccc1C2=O` | no | no | no |
| 33 | `Cc1ccc(C2(O)CCN(C(=O)c3ccc4sc(N)nc4c3)CC2)nc1` | no | no | no |
| 34 | `CCOC(=O)C(C#N)C(=N)C1C(=O)OC2CCCCC21` (centres unmarked) | no | no | no |
| 35 | `O=C(CCCO)NCCc1nc2ccccc2n1Cc1ccccc1` | no | no | - |
| 36 | `CC1(C)CC(NC(=S)Nc2ccc(F)cc2)CC(C)(C)N1` | no | no | no |
| 37 | `Cc1ccc(Nc2c(-c3ccc(C)o3)nc3ccccn23)cc1` | no | no | no |
| 38 | `CC(=O)CC[N+](C)(C)C.[I-]` | no | no | no |
| 39 | `O=S(=O)(c1ccc(Cl)cc1)c1nc(-c2ccco2)oc1NCc1ccco1` | no | no | - |
| 40 | `Cc1ccc(OCC(O)Cn2c(C3CC(=O)N(c4ccccc4)C3)nc3ccccc32)cc1` (centres unmarked) | no | no | - |
| 41 | `CN(CC(=O)N1CCN(Cc2cccc(Cl)c2)CC1)C1CCNCC1` | no | no | no |
| 42 | `O=S(=O)(NCC(Nc1ccccc1)c1ccccc1)c1ccccc1` (centres unmarked) | no | no | - |
| 43 | `CCN(CC)C(=O)[C@@H]1C[C@H](N)CN1C(=O)C(=O)c1cccn1C` | no | no | no |
| 44 | `Cn1c(=O)c2c(-c3ccccc3Cl)n(-c3ccccc3N)cc2n(C)c1=O` | no | no | no |
| 45 | `CCC[C@H]1CN(C(=O)c2ccccc2C#N)C[C@@H]1N` | no | no | no |
| 46 | `CCOC(=O)c1cnc2nc(C(F)(F)F)nn2c1N` | no | no | no |
| 47 | `O=C(CNc1ccc2ccccc2c1)NN=Cc1cc2ccccc2nc1Cl` | no | no | no |
| 48 | `Cc1ccn(CO)n1` | no | no | no |
| 49 | `Cc1nc2nc(CN)nn2c(C)c1CCC(=O)Nc1ccc(F)c(Cl)c1` | no | no | - |
| 50 | `Cc1cc(Cl)ccc1Nc1ncnc2c1nc1n2CCCC1` | no | no | - |
| 51 | `Cc1ccccc1COC1CN(C(=O)CN2CC3(CCNCC3)OC2=O)C1` | no | no | no |
| 52 | `CC(C)(C)c1cc(C=C(C#N)C#N)cc(C(C)(C)C)c1O` | no | no | no |
| 53 | `C=CCN1CC(c2nc3ccccc3n2CC(O)COc2cccc(C)c2)CC1=O` (centres unmarked) | no | no | - |
| 54 | `COc1ccnc(CN2CCCC(CO)(CC=C(C)C)C2)c1OC` (centres unmarked) | no | no | no |
| 55 | `CSc1nc2ccc(S(=O)(=O)N3CCNCC3)cc2s1` | no | no | no |
| 56 | `CS(=O)(=O)c1cnc(NCCn2cccn2)nc1C1CCCNC1` (centres unmarked) | no | no | no |
| 57 | `O=C(c1ccco1)N1CCCN(c2nccc(N3CCCC(O)C3)n2)CC1` (centres unmarked) | no | no | no |
| 58 | `CCN(CCCNc1nnc2c3ccccc3n(C)c2n1)c1cccc(C)c1` | no | no | - |
| 59 | `O=C(NCCCN1CC1)Nc1cccc2ccccc12` | yes | yes | yes |
| 60 | `O=S(=O)(c1ccc(Cl)cc1)N(Cc1ccco1)CC(O)Cn1c2ccccc2c2ccccc21` (centres unmarked) | no | no | no |
| 61 | `Cc1ccc(-c2cc(-c3ccc(OC(C)C)c(CO)c3)c(C#N)c(N)n2)nc1` | no | no | no |

7 of the entries, repeated:

compound,T1,T2,T3
CNc1cc(C)nc2c(C)c(-c3ccccc3)nn12,no,no,-
Cc1ccc(Oc2ccc(C(F)(F)F)cc2N)c(Cl)c1,no,no,no
Cc1cc(Cl)ccc1Nc1ncnc2c1nc1n2CCCC1,no,no,-
CC1(C)Cc2c(sc3nc(NCCCO)[nH]c(=O)c23)CO1,no,no,no
CS(=O)(=O)c1cnc(NCCn2cccn2)nc1C1CCCNC1 (centres unmarked),no,no,no
CC1(C)CC(NC(=S)Nc2ccc(F)cc2)CC(C)(C)N1,no,no,no
Cc1ccn(CO)n1,no,no,no